Laboratory results reported in PubChem BioAssay AID489037 (National Center for Advancing Translational Sciences (NCATS), 2010).
The inconclusive results got no clear call from the source; some entries with a clear call stand among them for comparison. Where the call is inconclusive, the potency comes from a doubtful curve fit. Some compounds were tested as several samples or in several runs, with calls that do not always agree. The source made the active and inactive calls. Calls follow the shape of the dose curve; as a rule, active = well fitted inhibition curve with a large enough effect; inconclusive = small, poorly fitted or top-dose-only effect, or effect the other way; inactive = no such curve, though single readings can be large or run the other way.

Sequences of proteins named here, by UniProt entry; tags and fusion partners are left off. A change or cut given only in a name is not applied to a line headed by its entry.
UniProt P51450: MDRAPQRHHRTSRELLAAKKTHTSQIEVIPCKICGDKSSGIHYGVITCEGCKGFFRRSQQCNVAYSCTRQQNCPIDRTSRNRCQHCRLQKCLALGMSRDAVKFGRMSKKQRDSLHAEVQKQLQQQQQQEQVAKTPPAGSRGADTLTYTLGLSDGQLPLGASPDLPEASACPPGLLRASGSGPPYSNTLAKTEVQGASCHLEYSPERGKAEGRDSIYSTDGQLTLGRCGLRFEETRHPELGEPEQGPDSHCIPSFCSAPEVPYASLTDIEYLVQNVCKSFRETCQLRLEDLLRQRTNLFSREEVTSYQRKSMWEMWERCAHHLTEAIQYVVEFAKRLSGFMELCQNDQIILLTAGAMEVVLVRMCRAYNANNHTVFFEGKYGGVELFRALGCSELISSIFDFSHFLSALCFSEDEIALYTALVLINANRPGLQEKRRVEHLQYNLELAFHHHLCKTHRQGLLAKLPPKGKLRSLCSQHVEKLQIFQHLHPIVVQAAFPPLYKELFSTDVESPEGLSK

These molecules were tested against Nuclear receptor ROR-gamma (Mus musculus) (UniProt P51450) (assay: Secondary confirmation assay for inhibitors of ROR gamma transcriptional activity). Details: Drosophila S2 Gal4-RORgamma UAS-luciferase reporter, 20 h; activity change, negative = inhibition: at 92.2 µM (top of the series).
Method in brief: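 Luminescence read after 20 hr at ambient temperature, following 1 hr compound exposure and copper sulfate induction (700 uM final), in stably transfected Schneider cells carrying Gal4-ROR gamma fusion and UAS-driven firefly luciferase.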
For `CC(C)(C(=O)Nc1nccs1)C(c1ccccc1)c1ccc(O)cc1` (centres undefined), the Potency was inconclusive: 72.4 µM [inhibitor, single point]. `COc1cc(O)c(C(CC(=O)N2CCC[C@H](C)C2)c2ccc3c(c2)OCO3)c(OC)c1` (some centres undefined) was tested, and the Potency was inconclusive: 28.8 µM [inhibitor, partial curve, poor fit] and inactive. `CC1CCCN(C(=O)CC(c2ccc3c(c2)OCO3)c2cc(C(C)C)ccc2O)C1` (centres undefined) was tested, and the Potency was inconclusive: 45.7 µM [inhibitor, partial curve, poor fit]. `CC1CCCN(C(=O)CC(c2ccc3c(c2)OCO3)c2ccc(I)cc2O)C1` (centres undefined) was tested, and the Potency was inconclusive: 0.911 µM [activator, full curve, poor fit]. `COc1ccccc1C(CC(=O)Nc1ccc(F)cc1)c1ccccc1` (centres undefined) was tested, and the “activity change, negative = inhibition” value was inactive: -21%. In the case of `COCC1CCCN(C(=O)CC(c2ccc3c(c2)OCO3)c2c(O)cc(OC)cc2OC)C1` (centres undefined), the Potency is reported as inconclusive: 25.7 µM [inhibitor, partial curve]. In the case of `CC(C)(C)OC(=O)N1CCC[C@H]1C(=O)N1CCC(C(=O)N[C@H](Cc2ccccc2)C(=O)NCc2ccc(F)cc2)CC1`, the Potency is reported as inconclusive: 0.0007 µM [activator]. `COc1ccc(CNC(=O)[C@H](Cc2ccccc2)NC(=O)C2CCN(C(=O)[C@@H]3CCCN3C(=O)OC(C)(C)C)CC2)cc1` was tested, and the Potency was inconclusive: 0.0457 µM [inhibitor, full curve, poor fit]. For `COc1cc(O)c(C(CC(=O)N2CCC(Cc3ccccc3)CC2)c2ccc(C)cc2)c(OC)c1` (centres undefined), the Potency was inconclusive: 0.0812 µM [activator, full curve, poor fit]. For `COc1cc(O)c(C(CC(=O)N2CCOCC2)c2ccc3c(c2)OCO3)c(OC)c1` (centres undefined), the “activity change, negative = inhibition” value was inactive: -21.1%. With `COc1cc(O)c(C(CC(=O)N2CCCC(COc3ccc(F)cc3)C2)c2ccc3c(c2)OCO3)c(OC)c1` (centres undefined) the “activity change, negative = inhibition” value was inactive: -4.08%. For `COc1cc(O)c(C(CC(=O)N2CCCC(C)(C)C2)c2ccc3c(c2)OCO3)c(OC)c1` (centres undefined), the Potency was active: 5.12 µM. In the case of `COc1ccccc1C(CC(=O)N1C[C@H](C)C[C@H](C)C1)c1ccccc1` (some centres undefined), the Potency is reported as inconclusive: 72.4 µM [inhibitor, single point]. With `COc1cc(O)c(C(CC(=O)N2CCC(c3ccccc3)CC2)c2ccc(C)cc2)c(OC)c1` (centres undefined) the Potency was inconclusive: 72.4 µM [activator, single point]. `COc1cc(O)c(C(CC(=O)N2CCc3ccccc32)c2ccc3c(c2)OCO3)c(OC)c1` (centres undefined) was tested, and the Potency was inconclusive: 45.7 µM [activator, single point]. For `COc1cc(O)c(C(CC(=O)N[C@H](C)c2ccccc2)c2ccc3c(c2)OCO3)c(OC)c1` (some centres undefined), the Potency was inconclusive: 40.7 µM [inhibitor, partial curve, poor fit]. `COc1ccc(C(=O)Nc2cc(-c3ccc(C)cc3)no2)cc1` was tested, and the Potency was inconclusive: 5.12 µM [inhibitor, full curve]. In the case of `CCOc1cccc(-c2cc(-c3n[nH]c(=O)n3CC)c3ccccc3n2)c1`, the Potency is reported as inconclusive: 8.12 µM [activator, full curve, poor fit]. In the case of `Cc1ccc(C)c(C(CC(=O)N2CCCC(C)C2)c2ccc3c(c2)OCO3)c1O` (centres undefined), the Potency is reported as inconclusive: 51.2 µM [inhibitor, single point]. With `CN1CCN(C(=O)CCN2C(=O)/C(=C/c3ccccc3Cl)SC2=S)CC1` the Potency was active: 28.8 µM. With `C=C1Nc2c(-c3ccc(F)cc3)cnn2C(N)=C1c1ccccc1` the Potency was active: 0.0911 µM. `COc1cc(O)c(C(CC(=O)N2CCCC(c3ccccc3)C2)c2ccc3c(c2)OCO3)c(OC)c1` (centres undefined) was tested, and the “activity change, negative = inhibition” value was inactive: -5.56%. In the case of `COc1cc(O)c(C(CC(=O)N2CCCC(C(=O)c3ccccc3)C2)c2ccc3c(c2)OCO3)c(OC)c1` (centres undefined), the “activity change, negative = inhibition” value is reported as inactive: 15%. `COc1cc(O)c(C(CC(=O)N2CCCC(c3nc4ccccc4o3)C2)c2ccc3c(c2)OCO3)c(OC)c1` (centres undefined) was tested, and the Potency was inconclusive: 9.11 µM [inhibitor, full curve]. In the case of `COc1cc(O)c(C(CC(=O)NCc2ccccc2)c2ccc3c(c2)OCO3)c(OC)c1` (centres undefined), the “activity change, negative = inhibition” value is reported as inactive: 8.94%. In the case of `COc1cc(O)c(C(CC(=O)N2CCCC(C(C)C)C2)c2ccc3c(c2)OCO3)c(OC)c1` (centres undefined), the Potency is reported as active: 25.7 µM. `CC1CCCN(C(=O)CC(c2ccccc2)c2ccc(O)cc2)C1` (centres undefined) was tested, and the “activity change, negative = inhibition” value was inactive: 0.816%. In the case of `COc1cc(O)c(C(CC(=O)N2CCc3ccccc3C2)c2ccc3c(c2)OCO3)c(OC)c1` (centres undefined), the “activity change, negative = inhibition” value is reported as inactive: -29.7%. In the case of `COc1cc(O)c(C(CC(=O)NC2CCC(C)CC2)c2ccc3c(c2)OCO3)c(OC)c1` (centres undefined), the “activity change, negative = inhibition” value is reported as inactive: -23.7%.
